Test results as given in publication PMC5963799.
These are yes or no findings as the source states them, for the method shown. In cells and extracts the contact can be indirect. Some results given as binding are weak or reduced against the parent protein; the word gives no strength.

By UniProt entry, the sequences of proteins in these tests, tags left out. Where a name states a change or a piece, a line headed by the entry shows the natural chain unless it says otherwise.
UniProt Q7Z434: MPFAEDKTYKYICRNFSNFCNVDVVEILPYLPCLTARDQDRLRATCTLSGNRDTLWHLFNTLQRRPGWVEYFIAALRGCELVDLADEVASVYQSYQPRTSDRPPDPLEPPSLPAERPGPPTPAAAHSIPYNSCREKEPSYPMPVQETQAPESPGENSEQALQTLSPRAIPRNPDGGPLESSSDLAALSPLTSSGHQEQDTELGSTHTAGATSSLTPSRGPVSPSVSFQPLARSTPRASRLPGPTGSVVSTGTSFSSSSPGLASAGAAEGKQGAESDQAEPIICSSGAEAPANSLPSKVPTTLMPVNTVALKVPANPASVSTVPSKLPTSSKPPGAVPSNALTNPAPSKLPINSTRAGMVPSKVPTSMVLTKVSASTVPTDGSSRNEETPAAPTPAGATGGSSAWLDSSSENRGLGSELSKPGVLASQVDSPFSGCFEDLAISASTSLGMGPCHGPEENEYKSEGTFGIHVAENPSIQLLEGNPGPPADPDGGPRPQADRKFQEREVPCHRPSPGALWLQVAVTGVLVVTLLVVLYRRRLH
UniProt F5HEZ4: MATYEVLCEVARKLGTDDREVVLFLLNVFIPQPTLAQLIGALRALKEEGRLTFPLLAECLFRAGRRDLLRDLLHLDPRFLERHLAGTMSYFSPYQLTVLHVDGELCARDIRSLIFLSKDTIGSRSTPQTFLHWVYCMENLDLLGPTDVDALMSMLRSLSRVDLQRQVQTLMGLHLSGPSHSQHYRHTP

Target: Flag-MAVS full-length (FL) (UniProt Q7Z434)
Experiment: co-IP; extracts of 293T cells transfected with Flag-MAVS and GST, GST-vFLIP, GST-DED1, GST-DED2 or GST-vFLIP helices; co-immunoprecipitated with MAVS (Fig 9A-B)

For “GST-DED1 (vFLIP residues 1–90) (from UniProt F5HEZ4 1-90) (domain or fragment)”, the binding was “binds”.
With “GST-DED2 (vFLIP residues 85–188) (from UniProt F5HEZ4 85-188) (domain or fragment)” the binding was “binds”.
